# “And” between values parts separate entries of the source, which are not always exact repeats. Equal entries are not always repeated. Structures can show the parent of a compound that is named as a salt. ± gives the standard deviation of the averaged measurements. Over roughly 1,800 compounds, “GFP- (p16Ink4a-) cell count relative to negative-control wells” has its median near 0.99; the lowest 2% begin near 0.5. This is one part of the list.
# Tested on: mouse p16Ink4a+/- lung fibroblasts (INKBRITE, bleomycin-injured)
# Assay: GFP- (p16Ink4a-) cell count relative to negative-control wells (fold of vehicle); higher = more p16Ink4a- cells surviving
# Conditions: 1 µM; 3 days
row,SMILES,GFP-
1,CCn1c2ccccc2c2cc(Nc3ccnc(NCCCN4CCOCC4)n3)ccc21,0.951
2,CC(C)n1nc(-c2ccc3oc(N)nc3c2)c2c(N)ncnc21,0.552
3,O=C1CN2Cc3c(ccc(Cl)c3Cl)N=C2N1 [Anagrelide],1.06
4,COc1ccc2cc3[n+](cc2c1OC)CCc1cc2c(cc1-3)OCO2 [Berberine],0.956
5,Cc1ccc(Nc2nccc(N(C)c3ccc4c(C)n(C)nc4c3)n2)cc1S(N)(=O)=O [Pazopanib],0.999 and 1.07
6,CC(=O)O[C@]1(C(C)=O)CC[C@H]2[C@@H]3C=C(C)C4=CC(=O)CC[C@]4(C)[C@H]3CC[C@@]21C [Megestrol Acetate],1.09
7,CC1(C)CCC(CN2CCN(c3ccc(C(=O)NS(=O)(=O)c4ccc(NCC5CCOCC5)c([N+](=O)[O-])c4)c(Oc4cnc5[nH]ccc5c4)c3)CC2)=C(c2ccc(Cl)cc2)C1 [Venetoclax],0.921
8,CCCCCCCCCCC[C@@H](C[C@@H]1OC(=O)[C@H]1CCCCCC)OC(=O)[C@H](CC(C)C)NC=O [Orlistat],0.994
9,CO[C@H]1/C=C/O[C@@]2(C)Oc3c(C)c(O)c4c(O)c(c5c(nc6cc(C)ccn65)c4c3C2=O)NC(=O)/C(C)=C\C=C\[C@H](C)[C@H](O)[C@@H](C)[C@@H](O)[C@@H](C)[C@H](OC(C)=O)[C@@H]1C [Rifaximin],0.919
10,CCC1(c2ccccc2)C(=O)NCNC1=O [Primidone],1.04
11,CN(CCOc1ccc(NS(C)(=O)=O)cc1)CCc1ccc(NS(C)(=O)=O)cc1 [Dofetilide],1.07
12,COc1cc([C@@H]2c3cc4c(cc3[C@@H](O[C@@H]3O[C@@H]5CO[C@@H](c6cccs6)O[C@H]5[C@H](O)[C@H]3O)[C@H]3COC(=O)[C@H]23)OCO4)cc(OC)c1O [Teniposide],0.832
13,CC(C)(Oc1ccc(Cl)cc1)C(=O)O [Clofibric Acid],1.12
14,CC1(C)[C@@H](O)CC[C@]2(C)[C@H]3C(=O)C=C4[C@@H]5C[C@@](C)(C(=O)O)CC[C@]5(C)CC[C@@]4(C)[C@]3(C)CC[C@@H]12 [Enoxolone],1.02
15,Cc1ccccc1C(=O)Nc1ccc(C(=O)N2CCCC(N(C)C)c3ccccc32)cc1 (stereo not given) [Mozavaptan],0.893
16,CCO[C@@H]1OC(=O)C[C@@H]1NC(=O)[C@@H]1CCCN1C(=O)[C@@H](NC(=O)c1ccc(N)c(Cl)c1)C(C)(C)C,1.02
17,NC12CC3CC(CC(C3)C1)C2 [Amantadine],1.07
18,C[C@@H](c1ncncc1F)[C@](O)(Cn1cncn1)c1ccc(F)cc1F [Voriconazole],0.915
19,CCOC(=O)C1=C(N)Oc2ccc(Br)cc2[C@H]1[C@H](C#N)C(=O)OCC,1.02
20,CC(=O)O[C@]1(C(C)=O)CC[C@H]2[C@@H]3CCC4=CC(=O)CCC4=C3[C@@H](c3ccc(N(C)C)cc3)C[C@@]21C [Ulipristal],1.04
21,Cc1cccc(C#Cc2ccccc2)n1,1.06
22,O=C(C1CCCCC1)N1CC(=O)N2CCc3ccccc3C2C1 (stereo not given) [Praziquantel],0.998
23,O=C1OC(CN2CCOCC2)CN1/N=C/c1ccc([N+](=O)[O-])o1 (stereo not given) [Furaltadone],1
24,CCN(CCO)CCCOc1ccc2c(Nc3cc(CC(=O)Nc4cccc(F)c4)[nH]n3)ncnc2c1,0.97 ± 0.11
25,C=CC1=C(C(=O)O)N2C(=O)[C@@H](NC(=O)/C(=N\O)c3csc(N)n3)[C@H]2SC1 [Cefdinir],0.894

# Exported with tabs: entries from further up.
row	SMILES	GFP-
1	CCn1c2ccccc2c2cc(Nc3ccnc(NCCCN4CCOCC4)n3)ccc21	0.951
2	CC(C)n1nc(-c2ccc3oc(N)nc3c2)c2c(N)ncnc21	0.552
3	O=C1CN2Cc3c(ccc(Cl)c3Cl)N=C2N1 [Anagrelide]	1.06
4	COc1ccc2cc3[n+](cc2c1OC)CCc1cc2c(cc1-3)OCO2 [Berberine]	0.956
5	Cc1ccc(Nc2nccc(N(C)c3ccc4c(C)n(C)nc4c3)n2)cc1S(N)(=O)=O [Pazopanib]	0.999 and 1.07
6	CC(=O)O[C@]1(C(C)=O)CC[C@H]2[C@@H]3C=C(C)C4=CC(=O)CC[C@]4(C)[C@H]3CC[C@@]21C [Megestrol Acetate]	1.09
7	CC1(C)CCC(CN2CCN(c3ccc(C(=O)NS(=O)(=O)c4ccc(NCC5CCOCC5)c([N+](=O)[O-])c4)c(Oc4cnc5[nH]ccc5c4)c3)CC2)=C(c2ccc(Cl)cc2)C1 [Venetoclax]	0.921
8	CCCCCCCCCCC[C@@H](C[C@@H]1OC(=O)[C@H]1CCCCCC)OC(=O)[C@H](CC(C)C)NC=O [Orlistat]	0.994
9	CO[C@H]1/C=C/O[C@@]2(C)Oc3c(C)c(O)c4c(O)c(c5c(nc6cc(C)ccn65)c4c3C2=O)NC(=O)/C(C)=C\C=C\[C@H](C)[C@H](O)[C@@H](C)[C@@H](O)[C@@H](C)[C@H](OC(C)=O)[C@@H]1C [Rifaximin]	0.919
10	CCC1(c2ccccc2)C(=O)NCNC1=O [Primidone]	1.04
11	CN(CCOc1ccc(NS(C)(=O)=O)cc1)CCc1ccc(NS(C)(=O)=O)cc1 [Dofetilide]	1.07
12	COc1cc([C@@H]2c3cc4c(cc3[C@@H](O[C@@H]3O[C@@H]5CO[C@@H](c6cccs6)O[C@H]5[C@H](O)[C@H]3O)[C@H]3COC(=O)[C@H]23)OCO4)cc(OC)c1O [Teniposide]	0.832
13	CC(C)(Oc1ccc(Cl)cc1)C(=O)O [Clofibric Acid]	1.12
14	CC1(C)[C@@H](O)CC[C@]2(C)[C@H]3C(=O)C=C4[C@@H]5C[C@@](C)(C(=O)O)CC[C@]5(C)CC[C@@]4(C)[C@]3(C)CC[C@@H]12 [Enoxolone]	1.02
15	Cc1ccccc1C(=O)Nc1ccc(C(=O)N2CCCC(N(C)C)c3ccccc32)cc1 (stereo not given) [Mozavaptan]	0.893
16	CCO[C@@H]1OC(=O)C[C@@H]1NC(=O)[C@@H]1CCCN1C(=O)[C@@H](NC(=O)c1ccc(N)c(Cl)c1)C(C)(C)C	1.02
17	NC12CC3CC(CC(C3)C1)C2 [Amantadine]	1.07
18	C[C@@H](c1ncncc1F)[C@](O)(Cn1cncn1)c1ccc(F)cc1F [Voriconazole]	0.915
19	CCOC(=O)C1=C(N)Oc2ccc(Br)cc2[C@H]1[C@H](C#N)C(=O)OCC	1.02
20	CC(=O)O[C@]1(C(C)=O)CC[C@H]2[C@@H]3CCC4=CC(=O)CCC4=C3[C@@H](c3ccc(N(C)C)cc3)C[C@@]21C [Ulipristal]	1.04
21	Cc1cccc(C#Cc2ccccc2)n1	1.06

# The listing continues.

row,SMILES,GFP-
1,Cc1cc(C)c(Nc2ccnc(Nc3ccc(C#N)cc3)n2)c(C)c1 [Dapivirine],1.05
2,CC(C)C[C@H](NC(=O)[C@H](CCc1ccccc1)NC(=O)CN1CCOCC1)C(=O)N[C@@H](Cc1ccccc1)C(=O)N[C@@H](CC(C)C)C(=O)[C@@]1(C)CO1 [Carfilzomib],0.433
3,CCCC(=O)OCO/C(O)=C1\C(C)=NC(C)=C(C(=O)OC)C1c1cccc(Cl)c1Cl (stereo not given) [Clevidipine],1.03
4,O=C[C@H](O)[C@@H](O)[C@H](O)[C@H](O)CO [D-glucose],1.03
5,Cc1cc(Nc2ccc(NC(=O)c3ccc(Nc4ccnc5ccccc45)cc3)cc2)nc(N)n1,0.955 ± 0.18
6,COc1ccc(-c2cnc3c(-c4cccc5ncccc45)cnn3c2)cc1,1.1
7,C=CC(=O)Nc1cccc(Nc2nc(Nc3ccc(OCCOC)cc3)ncc2F)c1,0.914
8,CCN(CC)C(=O)/C(C#N)=C/c1cc(O)c(O)c([N+](=O)[O-])c1 [Entacapone],0.982 ± 0.1
9,Cc1ccc(C(=O)NCCCCCC(=O)Nc2ccccc2N)cc1,0.741 ± 0.13
10,CN1c2cc(O)c(N=NC(N)=O)cc2CC1S(=O)(=O)O (stereo not given) [Carbazochrome sodium sulfonate],1.12
11,CCCCc1oc2ccc(NS(C)(=O)=O)cc2c1C(=O)c1ccc(OCCCN(CCCC)CCCC)cc1 [Dronedarone],1.09
12,O=C1CC2(CCCC2)CC(=O)N1CCCCN1CCN(c2ncccn2)CC1 [Buspirone],0.997
13,O=C(CCCN1CCN(c2ccccn2)CC1)c1ccc(F)cc1 [Azaperone],0.895
14,CC(N)C12CC3CC(CC(C3)C1)C2 (stereo not given) [Rimantadine],1.09
15,C/C=C1/[C@H]2C=C(C)C[C@]1(N)c1ccc(O)nc1C2 [(-)-Huperzine A (HupA)],0.949
16,COc1ccc(C[C@@H]2c3cc(OC)c(OC)cc3CC[N@+]2(C)CCC(=O)OCCCCCOC(=O)CC[N@@+]2(C)CCc3cc(OC)c(OC)cc3[C@H]2Cc2ccc(OC)c(OC)c2)cc1OC [Cisatracurium Besylate],1
17,CCOC(=O)c1c(C)n(C)c2ccc(O)cc12 [Mecarbinate],1.21
18,O=C1c2ccccc2C(=O)C1c1ccccc1 [Phenindione],1.01
19,COc1ccc2cc1Oc1ccc(cc1)C[C@H]1c3c(cc4c(c3Oc3cc5c(cc3OC)CCN(C)[C@@H]5C2)OCO4)CCN1C [Cepharanthine],0.859
20,O=C(O)c1cc(-c2ccccc2)nc2ccccc12 [Cinchophen],0.932
21,CN(C)C(=O)c1ccc(S(=O)(=O)c2ccc(NC(=O)[C@@](C)(O)C(F)(F)F)c(Cl)c2)cc1,0.95
22,CC1(C)O[C@@H]2C[C@H]3[C@@H]4CCC5=CC(=O)C=C[C@]5(C)[C@H]4[C@@H](O)C[C@]3(C)[C@]2(C(=O)CO)O1 [Desonide],0.846
23,Cc1ccc2c(Cl)cc(Cl)c(O)c2n1 [Chlorquinaldol],0.851
24,COCCn1c2c([n+](Cc3cnccn3)c1C)C(=O)c1ccccc1C2=O [Sepantronium Bromide],0.99
25,COc1ccc(C[C@H](C)NC[C@@H](O)c2ccc(O)c(NC=O)c2)cc1 [Formoterol Fumarate Dihydrate],0.96

row,SMILES,GFP-
1,CNC(=O)c1ccc2cc(C3(O)CCn4cncc43)ccc2c1 (stereo not given) [Orteronel],1.13
2,Cc1ccccc1C(C(=O)NC1CCCCC1)N(C(=O)Cn1ccnc1C)c1cccc(F)c1 (stereo not given),1.09
3,COc1ncc(-c2ccc3nccc(-c4ccnnc4)c3c2)cc1NS(=O)(=O)c1ccc(F)cc1F,0.515
4,O=C(O)c1ccc(Nc2ncc3c(n2)-c2ccc(Cl)cc2C(c2c(F)cccc2F)=NC3)cc1,0.853 ± 0.012
5,C[C@@H](N)[C@H]1CC[C@H](C(=O)Nc2ccncc2)CC1,0.959
6,CC(C)c1c(C(=O)Nc2ccccc2)c(-c2ccccc2)c(-c2ccc(F)cc2)n1CC[C@@H](O)C[C@@H](O)CC(=O)O [Atorvastatin],1.07
7,COc1ccc2c(Oc3ccc(NC(=O)c4c(C)n(CC(C)(C)O)n(-c5ccccc5)c4=O)nc3)ccnc2c1,0.835
8,CN(C)CCC(c1ccc(Br)cc1)c1ccccn1 (stereo not given) [Brompheniramine],1.07
9,CC1(C)SC2C(NC(=O)[C@H](NC(=O)N3CCNC3=O)c3ccccc3)C(=O)N2C1C(=O)O (stereo not given in full) [Azlocillin sodium salt],0.956
10,CCNC1=N[C@@H]2[C@@H](O)[C@H](O)[C@@H](CO)O[C@@H]2S1 [Thiamet G],0.965
11,O=C(c1ccc(/C=C/c2[nH]nc3ccccc23)cc1)N1CCNCC1,0.785 ± 0.0081
12,CN1CCN2c3ccccc3Cc3ccccc3C2C1 (stereo not given) [Mianserin],0.956
13,C[C@H]1O[C@@H](n2cc(F)c(=O)[nH]c2=O)[C@H](O)[C@@H]1O [Doxifluridine],1.1
14,CC(=O)Nc1cccc2c1c(Sc1ccc(Cl)cc1)c(C)n2CC(=O)O,1.07
15,O=C(NC(NC(=S)Nc1ccc(F)c([N+](=O)[O-])c1)C(Cl)(Cl)Cl)C(c1ccccc1)c1ccccc1 (stereo not given),1.16
16,CCS(=O)(=O)Nc1ccc2[nH]c(O)c(/C(=N/c3ccc(CN4CCCCC4)cc3)c3ccccc3)c2c1 [Hesperadin],0.811 ± 0.18
17,C=CC(=O)Nc1cccc(Nc2nc(Nc3ccc(N4CCN(C(C)=O)CC4)cc3OC)ncc2C(F)(F)F)c1,0.811
18,Cc1noc(NS(=O)(=O)c2ccc(N)cc2)c1C [Sulfisoxazole],1
19,NC1=NCC2c3ccccc3Cc3ccccc3N12 (stereo not given) [Epinastine],0.971
20,C=C[C@@]1(C)CC(=O)[C@]2(O)[C@@]3(C)[C@@H](O)CCC(C)(C)[C@@H]3[C@H](O)[C@H](OC(C)=O)[C@@]2(C)O1 [Colforsin],0.89
21,c1ccc([C@H]2CN3CCSC3=N2)cc1 [Levamisole],0.961
22,"COc1cc2nc(N(C)CCCNC(=O)C3CCCO3)nc(N)c2cc1OC (stereo not given) [Alfuzosin Hydrochloride, Alfuzosin]",1.25
23,N#CC[C@H](C1CCCC1)n1cc(-c2ncnc3[nH]ccc23)cn1 [Ruxolitinib],0.944 ± 0.17
24,O=C(Nc1ccccc1)c1ccccc1O [Salicylanilide],0.885
25,CC(=O)Oc1ccccc1C(=O)Nc1ncc([N+](=O)[O-])s1 [Nitazoxanide],1.18

# Source: the supplement of paper PMC11060735
